Values from PubChem BioAssay AID1259424 (University of Nebraska Medical Center, 2018)
Here is an unselected part of about 14,000 reagents tested. 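Higher correlation or smaller distance means closer resemblance to KSR1 loss; control wells, including KSR1 knockdowns, recur on many plates.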 Further read-outs or replicates are left out here. Not stated in the record: the time to read-out.

- Purpose: 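Rank knockdowns across the genome by resemblance to the KSR1 depletion profile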 (primary screen)
- Cell system: human HCT116 colon cancer cells
- Knock-down reagent: siRNA pool against human genes, 50 nM
- Measured: 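Six signature mRNAs by branched-DNA multiplex assay, scaled to two housekeeping genes and non-targeting median, log2; matched to mean KSR1 knockdown profile by Pearson correlation and euclidean distance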
- Reading the numbers: mean correlation with KSR1 profile: higher = expression change more like KSR1 knockdown; mean distance from KSR1 profile: higher = expression change less like KSR1 knockdown

GJB1 → mean correlation with KSR1 profile: -0.0312; mean distance from KSR1 profile: 1.43
OMG → mean correlation with KSR1 profile: -0.171; mean distance from KSR1 profile: 1.73
SLC7A2 → mean correlation with KSR1 profile: -0.0959; mean distance from KSR1 profile: 1.37
RGL1 → mean correlation with KSR1 profile: 0.604; mean distance from KSR1 profile: 1.41
OR2J2 → mean correlation with KSR1 profile: 0.648; mean distance from KSR1 profile: 1.71
WSCD1 → mean correlation with KSR1 profile: -0.132; mean distance from KSR1 profile: 1.51

Reformatted: results already given.
| gene knocked down | mean correlation with KSR1 profile | mean distance from KSR1 profile |
| --- | --- | --- |
| RGL1 | 0.604 | 1.41 |
| OR2J2 | 0.648 | 1.71 |

Continued:
RPL19 → mean correlation with KSR1 profile: 0.51; mean distance from KSR1 profile: 3.22
ZFP64 → mean correlation with KSR1 profile: -0.547; mean distance from KSR1 profile: 4.54
GCHFR → mean correlation with KSR1 profile: -0.447; mean distance from KSR1 profile: 2.66
EHF → mean correlation with KSR1 profile: 0.188; mean distance from KSR1 profile: 3.05
DGKB → mean correlation with KSR1 profile: 0.215; mean distance from KSR1 profile: 2.16
ALAS1 → mean correlation with KSR1 profile: -0.0527; mean distance from KSR1 profile: 2.37
ATAD3B → mean correlation with KSR1 profile: 0.393; mean distance from KSR1 profile: 1.8
BMAL2 → mean correlation with KSR1 profile: 0.731; mean distance from KSR1 profile: 0.598
TAF6 → mean correlation with KSR1 profile: 0.177; mean distance from KSR1 profile: 2.48
RCL1 → mean correlation with KSR1 profile: 0.246; mean distance from KSR1 profile: 1.36
PPCS → mean correlation with KSR1 profile: 0.379; mean distance from KSR1 profile: 2.25
GPATCH2 → mean correlation with KSR1 profile: 0.548; mean distance from KSR1 profile: 3.32
C6 → mean correlation with KSR1 profile: -0.448; mean distance from KSR1 profile: 1.46
